PubChem BioAssay AID720505, Drosophila RNAi Screening Center, 2013

Purpose: 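Fly regulators or components of the CRAC channel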 (primary screen)
Cells: Drosophila S2R+ cells
Reagents: long dsRNA against Drosophila genes
Conditions: thapsigargin (2 µM) in calcium-free buffer to empty internal stores, then 2 mM calcium added back
Measured: 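Fluo-4 signal in 384-well plates read on a FLIPR after thapsigargin (2 µM, calcium-free) store depletion and 2 mM calcium add-back; unnormalised mean endpoint per well; screen run twice, selected wells retested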
Scale: calcium signal: higher = more calcium entry after store depletion
Active means: 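Knock-downs counted as hits when calcium entry dropped relative to STIM1 positive and Rho1 negative controls present on each plate; roughly 1500 genes called, with reductions of differing size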
Meaning of the calls: active = called as lowering calcium entry; inactive = not called
The deposit covers about 20,000 reagents; shown is an unselected part of those with a known target gene and a result. In the full data, about 2,100 (10%) were called active. 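Raw plate signals without normalisation; calls rest on control-based scores that were not deposited; replicate 2 separates called from uncalled poorly.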 Reagent sequences are not shown. Not given: the amount of reagent, the time to read-out.

With CG13365 [DRSC17899], what was measured?
calcium signal, replicate 1: 82.2; calcium signal, replicate 2: 118; Call: inactive

With p38b [DRSC03586], what was measured?
calcium signal, replicate 1: 144; calcium signal, replicate 2: 132; Call: inactive

What is on record for L2HGDH [DRSC02082]?
calcium signal, replicate 1: 76.9; calcium signal, replicate 2: 109; Call: inactive

What did the screen give for Usp10 [DRSC08282]?
calcium signal, replicate 1: 97.2; calcium signal, replicate 2: 117; Call: inactive

How did the screen score Usp10 [DRSC08373]?
calcium signal, replicate 1: 78.5; calcium signal, replicate 2: 97.5; Call: inactive

What did the screen give for be [DRSC19607]?
calcium signal, replicate 1: 103; calcium signal, replicate 2: 91.6; Call: inactive

With be [DRSC19944], what was measured?
calcium signal, replicate 1: 85.9; calcium signal, replicate 2: 103; Call: inactive

For be [DRSC19945], what was measured?
calcium signal, replicate 1: 87; calcium signal, replicate 2: 107; Call: inactive

With Alg12 [DRSC16416], what does the deposit list?
calcium signal, replicate 1: 165; calcium signal, replicate 2: 111; Call: inactive

For GCS2beta [DRSC02960], what was measured?
calcium signal, replicate 1: 105; calcium signal, replicate 2: 113; Call: inactive

What is on record for Prosbeta3 [DRSC16801]?
calcium signal, replicate 1: 86.2; calcium signal, replicate 2: 97.4; Call: active

With CG4953 [DRSC02792], how do the results read?
calcium signal, replicate 1: 101; calcium signal, replicate 2: 104; Call: inactive

For gish [DRSC16154], what does the deposit list?
calcium signal, replicate 1: 170; calcium signal, replicate 2: 239; Call: inactive

For CG12279 [DRSC14495], what was measured?
calcium signal, replicate 1: 64.6; calcium signal, replicate 2: 191; Call: active

How did the screen score CG32115 [DRSC22607]?
calcium signal, replicate 1: 91.4; calcium signal, replicate 2: 160; Call: inactive

For Gr93d [DRSC21941], what was measured?
calcium signal, replicate 1: 109; calcium signal, replicate 2: 215; Call: inactive

What did the screen give for CG12637 [DRSC17845]?
calcium signal, replicate 1: 93.4; calcium signal, replicate 2: 101; Call: inactive

For CG33232 (retired record) [DRSC08187], how do the results read?
calcium signal, replicate 1: 137; calcium signal, replicate 2: 80.6; Call: inactive

What did the screen give for CG33232 (retired record) [DRSC08495]?
calcium signal, replicate 1: 74.3; calcium signal, replicate 2: 60; Call: inactive

An excerpt of the results above, as a working copy:
CG13365 [DRSC17899] → calcium signal, replicate 1: 82.2; calcium signal, replicate 2: 118; Call: inactive
p38b [DRSC03586] → calcium signal, replicate 1: 144; calcium signal, replicate 2: 132; Call: inactive
L2HGDH [DRSC02082] → calcium signal, replicate 1: 76.9; calcium signal, replicate 2: 109; Call: inactive
